Experimental data published in publication doi:10.1101/2025.01.10.632391.

Molecular target: T1, angiopoietin-like 6 (ANGPTL6) (UniProt Q8NI99)
T1 sequence: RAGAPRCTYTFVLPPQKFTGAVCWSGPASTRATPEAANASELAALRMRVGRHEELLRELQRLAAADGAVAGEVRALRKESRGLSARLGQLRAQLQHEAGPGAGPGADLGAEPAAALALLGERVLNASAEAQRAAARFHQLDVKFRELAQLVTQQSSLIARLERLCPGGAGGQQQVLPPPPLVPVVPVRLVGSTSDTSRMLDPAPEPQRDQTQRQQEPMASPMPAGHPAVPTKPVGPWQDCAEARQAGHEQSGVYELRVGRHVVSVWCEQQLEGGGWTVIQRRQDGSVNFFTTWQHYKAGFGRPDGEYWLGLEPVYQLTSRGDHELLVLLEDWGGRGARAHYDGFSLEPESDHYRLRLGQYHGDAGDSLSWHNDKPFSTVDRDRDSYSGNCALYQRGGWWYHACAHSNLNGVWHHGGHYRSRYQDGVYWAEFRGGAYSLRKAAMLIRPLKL
Test: SPR

binding: no binding (tested: up to 1000 nM)
Substance: fibronectin

No constants are given. Whether binding was seen depends on the method and setting.
